# No constants are given. Whether binding was seen depends on the method and setting. Binding seen in cells or lysates may run through a third protein. Some results given as binding are weak or reduced against the parent protein; the word gives no strength.
# Amino acid sequences for entries named in this document (tags omitted). A change or cut given only in a name is not applied to a line headed by its entry.
# UniProt Q05655: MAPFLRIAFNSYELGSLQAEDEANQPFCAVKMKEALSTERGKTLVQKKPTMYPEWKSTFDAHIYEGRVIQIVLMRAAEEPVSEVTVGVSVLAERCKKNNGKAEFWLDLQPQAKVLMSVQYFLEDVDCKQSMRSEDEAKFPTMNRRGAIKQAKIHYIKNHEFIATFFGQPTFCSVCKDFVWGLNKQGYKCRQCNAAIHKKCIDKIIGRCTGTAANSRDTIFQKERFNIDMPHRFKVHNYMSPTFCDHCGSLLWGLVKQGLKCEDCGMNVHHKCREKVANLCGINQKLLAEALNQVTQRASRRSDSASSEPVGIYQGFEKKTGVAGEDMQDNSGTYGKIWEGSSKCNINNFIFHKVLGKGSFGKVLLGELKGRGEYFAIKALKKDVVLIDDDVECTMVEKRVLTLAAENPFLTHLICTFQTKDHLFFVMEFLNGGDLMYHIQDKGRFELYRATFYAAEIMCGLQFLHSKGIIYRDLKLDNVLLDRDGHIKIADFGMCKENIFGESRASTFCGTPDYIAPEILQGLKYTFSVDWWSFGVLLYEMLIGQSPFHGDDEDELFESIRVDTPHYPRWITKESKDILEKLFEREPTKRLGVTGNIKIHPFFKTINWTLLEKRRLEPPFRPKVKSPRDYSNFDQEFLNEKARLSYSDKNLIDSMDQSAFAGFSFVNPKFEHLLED
# Target: heteronuclear ribonuclear protein K (hnRNP K) (human (endogenous in fibroblasts)) (UniProt P61978)
# Assay: co-IP; hnRNP K immunoprecipitated with anti-hnRNP K antibody from lysates of normal and SCA10 (~2000 repeats) fibroblasts; lysis and wash buffer 20 mM HEPES pH 7.4, 1 mM EDTA, 100 mM NaCl, 1% NP-40; blotted for hnRNP K, then PKCδ
substance,measurement,value
Protein Kinase C δ (PKCδ) (from UniProt Q05655 1-676) (enzyme),binding,binds
